The target of assay [1] is c‐MET receptor tyrosine kinase, endogenous (human (endogenous in A549)) (UniProt P08581). Description: co-IP; endogenous proteins; A549 lysates immunoprecipitated with anti-CPNE3 or anti-MET antibodies (control IgG), followed by immunoblotting.
The target of assay [2] is Calcium‐dependent phospholipid‐binding protein‐III (CPNE3), endogenous (human (endogenous in A549 and H1299)) (UniProt O75131). The description is as above.

Amino acid sequences for entries named in this document (tags omitted). Residues count along the entry.
UniProt P08581, residues 25-1390: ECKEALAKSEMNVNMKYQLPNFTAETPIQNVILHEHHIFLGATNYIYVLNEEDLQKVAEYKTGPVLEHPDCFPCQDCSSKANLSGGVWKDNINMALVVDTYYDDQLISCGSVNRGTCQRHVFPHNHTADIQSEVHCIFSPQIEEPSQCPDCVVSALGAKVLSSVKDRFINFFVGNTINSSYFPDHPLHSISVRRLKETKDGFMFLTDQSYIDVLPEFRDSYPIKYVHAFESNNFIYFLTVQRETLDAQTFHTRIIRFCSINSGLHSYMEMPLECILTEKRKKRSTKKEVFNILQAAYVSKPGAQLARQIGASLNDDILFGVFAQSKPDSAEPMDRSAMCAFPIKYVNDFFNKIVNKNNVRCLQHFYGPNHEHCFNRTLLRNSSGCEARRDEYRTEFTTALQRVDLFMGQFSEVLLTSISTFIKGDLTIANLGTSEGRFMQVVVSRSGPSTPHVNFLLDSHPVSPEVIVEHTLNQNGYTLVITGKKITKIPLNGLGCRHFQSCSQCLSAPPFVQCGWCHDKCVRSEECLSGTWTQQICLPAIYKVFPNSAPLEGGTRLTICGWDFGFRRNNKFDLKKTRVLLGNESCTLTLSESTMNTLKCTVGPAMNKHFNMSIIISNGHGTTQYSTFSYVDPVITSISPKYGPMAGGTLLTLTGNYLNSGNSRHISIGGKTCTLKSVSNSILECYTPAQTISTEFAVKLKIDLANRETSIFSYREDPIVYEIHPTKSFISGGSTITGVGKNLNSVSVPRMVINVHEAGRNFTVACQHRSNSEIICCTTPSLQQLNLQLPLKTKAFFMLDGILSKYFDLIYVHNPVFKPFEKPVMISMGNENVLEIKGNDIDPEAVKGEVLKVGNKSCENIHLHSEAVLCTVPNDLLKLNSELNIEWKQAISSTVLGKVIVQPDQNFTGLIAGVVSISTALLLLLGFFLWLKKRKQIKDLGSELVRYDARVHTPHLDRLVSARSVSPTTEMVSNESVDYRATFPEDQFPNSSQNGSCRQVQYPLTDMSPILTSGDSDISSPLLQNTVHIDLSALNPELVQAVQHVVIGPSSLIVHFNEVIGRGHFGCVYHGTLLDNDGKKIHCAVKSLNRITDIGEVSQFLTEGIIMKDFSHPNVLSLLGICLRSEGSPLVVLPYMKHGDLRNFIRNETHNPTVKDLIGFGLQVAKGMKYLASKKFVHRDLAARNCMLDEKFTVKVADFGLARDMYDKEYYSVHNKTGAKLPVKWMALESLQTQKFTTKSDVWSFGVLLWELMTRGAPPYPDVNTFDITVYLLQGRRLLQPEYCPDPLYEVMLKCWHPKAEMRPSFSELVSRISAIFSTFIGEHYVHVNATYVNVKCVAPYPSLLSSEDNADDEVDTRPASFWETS
UniProt O75131: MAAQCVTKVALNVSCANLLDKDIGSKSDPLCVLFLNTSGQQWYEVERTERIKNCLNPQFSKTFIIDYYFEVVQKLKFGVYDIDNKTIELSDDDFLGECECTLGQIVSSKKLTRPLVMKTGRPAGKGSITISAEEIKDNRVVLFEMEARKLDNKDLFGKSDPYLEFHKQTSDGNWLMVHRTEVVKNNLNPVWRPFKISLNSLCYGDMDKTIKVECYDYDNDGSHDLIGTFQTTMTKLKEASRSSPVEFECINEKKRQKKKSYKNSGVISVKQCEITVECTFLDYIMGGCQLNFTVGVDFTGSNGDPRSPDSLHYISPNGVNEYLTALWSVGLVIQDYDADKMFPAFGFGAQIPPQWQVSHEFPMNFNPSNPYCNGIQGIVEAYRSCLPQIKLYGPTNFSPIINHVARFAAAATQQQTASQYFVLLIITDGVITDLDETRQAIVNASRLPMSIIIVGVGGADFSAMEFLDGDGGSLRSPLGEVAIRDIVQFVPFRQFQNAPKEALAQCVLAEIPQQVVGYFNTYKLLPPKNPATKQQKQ

Results are given in words; binding and its absence hold for the method and conditions named. Binding seen in cells or lysates may run through a third protein. Some entries that bind do so weakly or less than the wild type.

For the substance “Calcium‐dependent phospholipid‐binding protein‐III (CPNE3), endogenous (from UniProt O75131 1-537)”, the binding entry in assay [1] is listed as “binds”.

Regarding “c‐MET receptor tyrosine kinase, endogenous (from UniProt P08581 25-1390)”, the binding entry in assay [2] is on record as “binds”.

The values are drawn from paper PMC12587306.
